The values that follow come from EP3611183B1 (Seoul National University R & DB Foundation, priority 2017, dated 2023).

A short description of this series: peptide synthesis. Conditions: whole synthesis, one disulfide bridge, sequence written open.

Where a sequence shows no end group, the ends are not given.

As to CWPSALPTC, the outcome is “peptide A which failed to synthesize in a cyclic form”.
